Reference: PMC9612488
No constants are given. Whether binding was seen depends on the method and setting. Binding seen in cells or lysates may run through a third protein.

The chains behind the UniProt entries cited, without tags or fusion partners.
UniProt P50887: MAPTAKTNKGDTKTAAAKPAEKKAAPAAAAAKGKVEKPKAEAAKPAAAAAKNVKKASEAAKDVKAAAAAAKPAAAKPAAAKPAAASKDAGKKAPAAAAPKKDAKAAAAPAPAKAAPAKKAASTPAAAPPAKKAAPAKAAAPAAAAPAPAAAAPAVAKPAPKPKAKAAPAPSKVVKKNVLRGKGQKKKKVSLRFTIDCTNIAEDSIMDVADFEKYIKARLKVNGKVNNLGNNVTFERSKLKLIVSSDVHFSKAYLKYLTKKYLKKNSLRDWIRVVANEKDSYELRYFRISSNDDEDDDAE

Biological target: Flag-RpL22 (UniProt P50887)
Assay: co-IP; lysates of stably transfected S2 cells expressing Flag-Edis-p or Flag-RpL22; anti-Flag immunoprecipitation; immunoblot with anti-Relish and anti-Flag; lysis buffer 20 mM Tris-HCl pH 7.6, 150 mM NaCl, 2 mM EDTA, 10% glycerol, 1% Triton X-100, 1 mM DTT

B1: endogenous Relish (protein, UniProt Q94527 1-971)
chain: MNMNQYYDLDNGKNVMFMNDASSTSGYSSSTSPNSTNRSFSPAHSPKTMELQTDFANLNLPGGNSPHQPPMANSPYQNQLLNNGGICQLGATNLINSTGVSFGVANVTSFGNMYMDHQYFVPAPATVPPSQNFGYHQNGLASDGDIKHVPQLRIVEQPVEKFRFRYKSEMHGTHGSLNGANSKRTPKTFPEVTLCNYDGPAVIRCSLFQTNLDSPHSHQLVVRKDDRDVCDPHDLHVSKERGYVAQFINMGIIHTAKKYIFEELCKKKQDRLVFQMNRRELSHKQLQELHQETEREAKDMNLNQVRLCFEAFKIEDNGAWVPLAPPVYSNAINNRKSAQTGELRIVRLSKPTGGVMGNDELILLVEKVSKKNIKVRFFEEDEDGETVWEAYAKFRESDVHHQYAIVCQTPPYKDKDVDREVNVYIELIRPSDDERSFPALPFRYKPRSVIVSRKRRRTGSSANSSSSGTESSNNSLDLPKTLGLAQPPNGLPNLSQHDQTISEEFGREKHLNEFIASEDFRKLIEHNSSDLEKICQLDMGELQHDGHNRAEVPSHRNRTIKCLDDLFEIYKQDRISPIKISHHKVEKWFIEHALNNYNRDTLLHEVISHKKDKLKLAIQTIQVMNYFNLKDVVNSTLNADGDSALHVACQQDRAHYIRPLLGMGCNPNLKNNAGNTPLHVAVKEEHLSCVESFLNGVPTVQLDLSLTNDDGLTPLHMAIRQNKYDVAKKLISYDRTSISVANTMDGNNALHMAVLEQSVELLVLILDAQNENLTDILQAQNAAGHTPLELAERKANDRVVQLLKNVYPEKGELAMTWIPCKVKEEIDSSSDESSDAGQLEIKSEEMDIETKDEDSVELDLSSGPRRQKDESSRDTEMDNNKLQLLLKNKFIYDRLCSLLNQPLGHGSDPQDRKWMQLARQTHLKQFAFIWLGAEDLLDHVKRKGASVEFSTFARALQAVDPQAYALLVNPT
- binding: no binding
